In PubChem BioAssay AID328 (DTP/NCI, 2004):
The list does not hold the whole screen: it gathers tests that were run many times, whatever their T/C, doses with no T/C, and many T/C values between a quarter and a half above the control. Other doses and runs of a compound stand elsewhere. T/C gives the treated animals as a percentage of the vehicle group. Some doses have a count of surviving animals in place of a T/C: the source files T/C as zero there, which appears to mark a toxic dose or a test without result, not a measured value. Some survivor counts are full or nearly so, which does not show that the dose was tolerated: the source hardly ever lists a survival T/C far under the control, and the zero likely stands for such cases as well. Survivors were counted at the toxicity check, usually on the fifth day, unless a day is given; later deaths do not show. Schedules are NCI's codes, read here as Q, the interval in days (D) or hours (H), X, the number of doses. Some entries were tested several times; the results are listed from low to high. For survival time, this PubChem deposit counts one and a half times the control or more as active, and values a quarter to a half above the control carry no call in these data; other NCI protocols may use other cut-offs. Additions like (4×) give the number of equal values in this list. Some T/C values carry the count of animals alive at the toxicity check (mostly the fifth day); where none is given, no animal had died by that day.

Tested on: BDF1 mice, P388 leukemia ip, median survival T/C
Experiment: NCI In Vivo Anticancer Drug Screen. Data for tumor model P388 Leukemia (intraperitoneal) in B6D2F1 (BDF1) mice
Conditions: T/C endpoint: median survival time, higher T/C = longer survival
Procedure, shortened: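 Survival ratio, drug arm over vehicle arm, in mice with a transplanted tumour.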

[1] = dose: 100.0 mg/kg/injection, schedule: Q01DX009 (ip), vehicle: saline with Tween-80
[2] = dose: 100.0 mg/kg/injection, schedule: Q04DX003 (ip), vehicle: Klucel (hydroxypropylcellulose) (HPC)
[3] = dose: 50.0 mg/kg/injection, schedule: Q04DX003 (ip), vehicle: saline with Tween-80
[4] = dose: 200.0 mg/kg/injection, schedule: Q04DX003 (ip), vehicle: saline with Tween-80
[5] = dose: 50.0 mg/kg/injection, schedule: Q01DX009 (ip), vehicle: saline
[6] = dose: 200.0 mg/kg/injection, schedule: Q01DX009 (ip), vehicle: saline with Tween-80

`COc1cc2cc3cc4cc(OC)c(OC)cc4c(C)[n+]3cc2cc1OC` (tested in a mixture with another compound) was tested, and the T/C (dose: 5.0 mg/kg/injection, schedule: Q01DX009 (ip), vehicle: saline) was 140 % of control, the T/C (dose: 10.0 mg/kg/injection, schedule: Q01DX009 (ip), vehicle: saline) was 145 % of control [5 of 6 alive] and the T/C (dose: 20.0 mg/kg/injection, schedule: Q04DX003 (ip), vehicle: saline) was 148 % of control. The T/C (dose: 80.0 mg/kg/injection, schedule: Q04DX003 (ip), vehicle: saline) was 136 % of control, the survivor count (dose: 240.0 mg/kg/injection, schedule: Q01DX009 (ip), vehicle: saline) was 5 of 6 and the survivor count (dose: 320.0 mg/kg/injection, schedule: Q04DX003 (ip), vehicle: saline) was 5 of 6.
`CCC1OC(=O)C(C)C(OC2CC(C)(O)C(O)C(C)O2)C(C)C(O)C(C)(O)CC(C)C(=O)C(C)C(O)C1C` (centres undefined) was tested, and the survivor count (dose: 400.0 mg/kg/injection, schedule: Q01DX009 (ip), vehicle: saline) was 0 of 6.
With `CNC(=O)OCc1c(COC(=O)NC)c(-c2ccc(Cl)cc2Cl)n2c1CCC2` the T/C (dose: 12.5 mg/kg/injection, schedule: Q01DX009 (ip), vehicle: other) was 127 % of control, the T/C (dose: 25.0 mg/kg/injection, schedule: Q01DX009 (ip), vehicle: other) was 142 % of control and the T/C (dose: 50.0 mg/kg/injection, schedule: Q01DX009 (ip), vehicle: other) was 145 % of control. For the same compound, the survivor count (dose: 200.0 mg/kg/injection, schedule: Q01DX009 (ip), vehicle: other) was 0 of 6.
In the case of `O=C1CCCC(=O)C1C(C[N+](=O)[O-])c1ccccc1` (centres undefined), the T/C (dose: 50.0 mg/kg/injection, schedule: Q01DX009 (ip), vehicle: Klucel (hydroxypropylcellulose) (HPC)) is reported as 128 % of control.
With `CC(C)COC(=O)C1(N)CCCC1` the T/C [1] was 125 % of control (2×).
`CC(C)c1ccc(C(=O)C2CC2)cc1` was tested, and the survivor count [2] was 6 of 6 and the survivor count (dose: 400.0 mg/kg/injection, schedule: Q04DX003 (ip), vehicle: Klucel (hydroxypropylcellulose) (HPC)) was 5 of 6.
With `O=C(NO)Nc1nc(Cl)c(Cl)nc1Cl` the T/C (dose: 25.0 mg/kg/injection, schedule: Q04DX003 (ip), vehicle: saline with Tween-80) was 134 % of control, the T/C (dose: 50.0 mg/kg/injection, schedule: Q01DX009 (ip), vehicle: water) was 125 % of control and the T/C [3] was 144 % of control. The T/C (dose: 100.0 mg/kg/injection, schedule: Q04DX003 (ip), vehicle: saline with Tween-80) was 149 % of control, the T/C (dose: 100.0 mg/kg/injection, schedule: Q04DX003 (ip), vehicle: water) was 148 % of control and the survivor count (dose: 200.0 mg/kg/injection, schedule: Q01DX009 (ip), vehicle: water) was 4 of 6. The survivor count [4] was 5 of 6.
`CCN1/C(=C/C=C/c2oc3ccccc3[n+]2CC)Oc2ccccc21` was tested, and the T/C (dose: 0.15 mg/kg/injection, schedule: Q01DX009 (ip), vehicle: Klucel (hydroxypropylcellulose) (HPC)) was 125 % of control [5 of 6 alive], the T/C (dose: 0.25 mg/kg/injection, schedule: Q04DX003 (ip), vehicle: Klucel (hydroxypropylcellulose) (HPC)) was 130 % of control and the T/C (dose: 0.3 mg/kg/injection, schedule: Q01DX009 (ip), vehicle: Klucel (hydroxypropylcellulose) (HPC)) was 135 % of control. The survivor count (dose: 0.3 mg/kg/injection, schedule: Q01DX009 (ip), vehicle: saline) was 6 of 6, the T/C (dose: 0.5 mg/kg/injection, schedule: Q01DX010 (ip), vehicle: saline) was 136 % of control and the T/C (dose: 0.5 mg/kg/injection, schedule: Q04DX003 (ip), vehicle: Klucel (hydroxypropylcellulose) (HPC)) was 125 % of control. For the same compound, the T/C (dose: 0.6 mg/kg/injection, schedule: Q01DX009 (ip), vehicle: saline) was 133 % of control, the survivor count (dose: 1.0 mg/kg/injection, schedule: Q01DX010 (ip), vehicle: saline) was 3 of 6 and the T/C (dose: 1.0 mg/kg/injection, schedule: Q04DX003 (ip), vehicle: Klucel (hydroxypropylcellulose) (HPC)) was 125 % of control [5 of 6 alive]. The T/C (dose: 1.2 mg/kg/injection, schedule: Q01DX009 (ip), vehicle: saline) was 133 % of control, the survivor count (dose: 2.0 mg/kg/injection, schedule: Q04DX003 (ip), vehicle: Klucel (hydroxypropylcellulose) (HPC)) was 3 of 6 and the T/C (dose: 300.0 micrograms/kg/injection, schedule: Q01DX009 (ip), vehicle: Klucel (hydroxypropylcellulose) (HPC)) was 141 % of control.
With `COc1ccc(N=O)c(O)c1` the T/C (dose: 100.0 mg/kg/injection, schedule: Q01DX010 (ip), vehicle: carboxymethylcellulose (CMC)) was 145 % of control, the survivor count (dose: 200.0 mg/kg/injection, schedule: Q01DX009 (ip), vehicle: Klucel (hydroxypropylcellulose) (HPC)) was 1 of 6 and 2 of 6 and the survivor count (dose: 200.0 mg/kg/injection, schedule: Q01DX010 (ip), vehicle: carboxymethylcellulose (CMC)) was 0 of 6. The survivor count (dose: 200.0 mg/kg/injection, schedule: Q04DX003 (ip), vehicle: Klucel (hydroxypropylcellulose) (HPC)) was 4 of 6.
For `COc1cc(NCCCC(C)N)c2ncccc2c1OC` (centres undefined), the survivor count [5] was 5 of 6, the survivor count (dose: 100.0 mg/kg/injection, schedule: Q01DX009 (ip), vehicle: saline) was 0 of 6 and the survivor count (dose: 200.0 mg/kg/injection, schedule: Q01DX009 (ip), vehicle: saline) was 0 of 6.
With `OCCCN1CNC(=S)NC1` the T/C [5] was 132 % of control.
For `CCCCCCCCCCCCCC(=O)O[C@@H]1[C@@H](C)[C@@]2(O)[C@@H](C=C(CO)C[C@]3(O)C(=O)C(C)=C[C@@H]23)[C@@H]2C(C)(C)[C@]12OC(C)=O`, the T/C (dose: 1.0 mg/kg/injection, schedule: Q01DX009 (ip), vehicle: saline + alcohol) was 126 % of control, the T/C (dose: 6.2 micrograms/kg/injection, schedule: Q01DX009 (ip), vehicle: gum acacia) was 126 % of control and the T/C (dose: 12.5 micrograms/kg/injection, schedule: Q01DX009 (ip), vehicle: gum acacia) was 135 % of control. For the same compound, the T/C (dose: 100.0 micrograms/kg/injection, schedule: Q01DX009 (ip), vehicle: gum acacia) was 126 % of control and the T/C (dose: 400.0 micrograms/kg/injection, schedule: Q01DX009 (ip), vehicle: gum acacia) was 140 % of control.
`O=S(=O)(C1=CCCCC1)C1=CCCCC1` was tested, and the survivor count [4] was 6 of 6 and the survivor count (dose: 400.0 mg/kg/injection, schedule: Q04DX003 (ip), vehicle: saline with Tween-80) was 6 of 6.
For `CCCC#CCOCC1CO1` (centres undefined), the survivor count (dose: 400.0 mg/kg/injection, schedule: Q01DX009 (ip), vehicle: saline with Tween-80) was 1 of 6.
For `CCCCc1ccc2nc(NC(=O)OC)[nH]c2c1`, the T/C (dose: 25.0 mg/kg/injection, schedule: Q01DX009 (ip), vehicle: saline with Tween-80) was 129 % of control, the T/C (dose: 50.0 mg/kg/injection, schedule: Q01DX009 (ip), vehicle: saline with Tween-80) was 137 % of control and the T/C (dose: 50.0 mg/kg/injection, schedule: Q04DX003 (ip), vehicle: Klucel (hydroxypropylcellulose) (HPC)) was 129 % of control. For the same compound, the T/C (dose: 50.0 mg/kg/injection, schedule: Q04DX003 (ip), vehicle: other) was 135 % of control, the T/C [3] was 147 % of control and the survivor count [1] was 6 of 7. The T/C [2] was 147 % of control.
`OC1CC2C3C4C1C1C2C3C41` (centres undefined) was tested, and the survivor count (dose: 400.0 mg/kg/injection, schedule: Q01DX001 (ip), vehicle: saline) was 4 of 6.
For `COc1cc(Cl)ccc1C`, the T/C (dose: 132.0 mg/kg/injection, schedule: Q01DX009 (ip), vehicle: saline with Tween-80) was 128 % of control, the T/C [6] was 130 % of control and the survivor count (dose: 300.0 mg/kg/injection, schedule: Q01DX009 (ip), vehicle: saline with Tween-80) was 6 of 6.
With `CC(=O)n1ncc2ccc(N)cc21` the survivor count (dose: 400.0 mg/kg/injection, schedule: Q01DX009 (ip), vehicle: water) was 0 of 6.
For `CCCCCCCCNc1ccccc1`, the survivor count (dose: 200.0 mg/kg/injection, schedule: Q01DX001 (ip), vehicle: saline sonified) was 6 of 6.
`Cc1cc(NC(=O)Nc2cccc(C3=NCCN3)c2)ccc1NC(=O)Nc1cccc(C2=NCCN2)c1` was tested, and the T/C [6] was 136 % of control.
